According to paper PMC12358912:
Results are given in words; binding and its absence hold for the method and conditions named. Some entries that bind do so weakly or less than the wild type.

Amino acid sequences for entries named in this document (tags omitted). A change or cut given only in a name is not applied to a line headed by its entry.
UniProt Q14683: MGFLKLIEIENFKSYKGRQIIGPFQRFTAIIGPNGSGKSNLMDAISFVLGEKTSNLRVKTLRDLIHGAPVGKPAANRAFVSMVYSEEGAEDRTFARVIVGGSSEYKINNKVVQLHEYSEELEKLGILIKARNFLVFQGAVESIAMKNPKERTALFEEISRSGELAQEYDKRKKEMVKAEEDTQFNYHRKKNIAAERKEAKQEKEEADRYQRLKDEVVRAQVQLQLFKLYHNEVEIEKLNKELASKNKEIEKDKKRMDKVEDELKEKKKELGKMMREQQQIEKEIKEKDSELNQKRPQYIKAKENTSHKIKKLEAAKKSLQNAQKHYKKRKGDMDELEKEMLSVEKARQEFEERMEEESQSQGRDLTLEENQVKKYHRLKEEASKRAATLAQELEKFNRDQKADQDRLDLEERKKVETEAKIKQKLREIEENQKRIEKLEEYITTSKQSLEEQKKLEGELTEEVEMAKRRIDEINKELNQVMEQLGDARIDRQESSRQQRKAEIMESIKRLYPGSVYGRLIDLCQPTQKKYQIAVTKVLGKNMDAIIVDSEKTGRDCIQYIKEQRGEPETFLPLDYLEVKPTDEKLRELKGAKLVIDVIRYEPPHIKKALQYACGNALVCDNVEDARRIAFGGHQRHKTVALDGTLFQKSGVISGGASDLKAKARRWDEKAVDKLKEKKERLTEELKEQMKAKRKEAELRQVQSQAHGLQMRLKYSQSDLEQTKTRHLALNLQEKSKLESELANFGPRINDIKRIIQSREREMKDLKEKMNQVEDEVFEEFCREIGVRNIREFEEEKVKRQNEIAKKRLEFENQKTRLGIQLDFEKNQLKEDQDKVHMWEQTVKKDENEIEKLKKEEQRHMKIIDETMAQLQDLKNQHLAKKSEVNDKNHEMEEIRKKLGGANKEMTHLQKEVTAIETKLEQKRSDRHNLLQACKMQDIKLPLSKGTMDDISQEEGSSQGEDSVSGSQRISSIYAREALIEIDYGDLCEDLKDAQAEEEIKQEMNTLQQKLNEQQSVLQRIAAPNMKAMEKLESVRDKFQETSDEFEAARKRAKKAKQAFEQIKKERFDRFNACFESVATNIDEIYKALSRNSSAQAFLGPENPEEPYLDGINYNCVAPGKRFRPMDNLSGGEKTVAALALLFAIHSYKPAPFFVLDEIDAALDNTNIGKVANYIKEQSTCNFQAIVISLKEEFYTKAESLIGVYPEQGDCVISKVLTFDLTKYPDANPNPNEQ
UniProt Q6KC79: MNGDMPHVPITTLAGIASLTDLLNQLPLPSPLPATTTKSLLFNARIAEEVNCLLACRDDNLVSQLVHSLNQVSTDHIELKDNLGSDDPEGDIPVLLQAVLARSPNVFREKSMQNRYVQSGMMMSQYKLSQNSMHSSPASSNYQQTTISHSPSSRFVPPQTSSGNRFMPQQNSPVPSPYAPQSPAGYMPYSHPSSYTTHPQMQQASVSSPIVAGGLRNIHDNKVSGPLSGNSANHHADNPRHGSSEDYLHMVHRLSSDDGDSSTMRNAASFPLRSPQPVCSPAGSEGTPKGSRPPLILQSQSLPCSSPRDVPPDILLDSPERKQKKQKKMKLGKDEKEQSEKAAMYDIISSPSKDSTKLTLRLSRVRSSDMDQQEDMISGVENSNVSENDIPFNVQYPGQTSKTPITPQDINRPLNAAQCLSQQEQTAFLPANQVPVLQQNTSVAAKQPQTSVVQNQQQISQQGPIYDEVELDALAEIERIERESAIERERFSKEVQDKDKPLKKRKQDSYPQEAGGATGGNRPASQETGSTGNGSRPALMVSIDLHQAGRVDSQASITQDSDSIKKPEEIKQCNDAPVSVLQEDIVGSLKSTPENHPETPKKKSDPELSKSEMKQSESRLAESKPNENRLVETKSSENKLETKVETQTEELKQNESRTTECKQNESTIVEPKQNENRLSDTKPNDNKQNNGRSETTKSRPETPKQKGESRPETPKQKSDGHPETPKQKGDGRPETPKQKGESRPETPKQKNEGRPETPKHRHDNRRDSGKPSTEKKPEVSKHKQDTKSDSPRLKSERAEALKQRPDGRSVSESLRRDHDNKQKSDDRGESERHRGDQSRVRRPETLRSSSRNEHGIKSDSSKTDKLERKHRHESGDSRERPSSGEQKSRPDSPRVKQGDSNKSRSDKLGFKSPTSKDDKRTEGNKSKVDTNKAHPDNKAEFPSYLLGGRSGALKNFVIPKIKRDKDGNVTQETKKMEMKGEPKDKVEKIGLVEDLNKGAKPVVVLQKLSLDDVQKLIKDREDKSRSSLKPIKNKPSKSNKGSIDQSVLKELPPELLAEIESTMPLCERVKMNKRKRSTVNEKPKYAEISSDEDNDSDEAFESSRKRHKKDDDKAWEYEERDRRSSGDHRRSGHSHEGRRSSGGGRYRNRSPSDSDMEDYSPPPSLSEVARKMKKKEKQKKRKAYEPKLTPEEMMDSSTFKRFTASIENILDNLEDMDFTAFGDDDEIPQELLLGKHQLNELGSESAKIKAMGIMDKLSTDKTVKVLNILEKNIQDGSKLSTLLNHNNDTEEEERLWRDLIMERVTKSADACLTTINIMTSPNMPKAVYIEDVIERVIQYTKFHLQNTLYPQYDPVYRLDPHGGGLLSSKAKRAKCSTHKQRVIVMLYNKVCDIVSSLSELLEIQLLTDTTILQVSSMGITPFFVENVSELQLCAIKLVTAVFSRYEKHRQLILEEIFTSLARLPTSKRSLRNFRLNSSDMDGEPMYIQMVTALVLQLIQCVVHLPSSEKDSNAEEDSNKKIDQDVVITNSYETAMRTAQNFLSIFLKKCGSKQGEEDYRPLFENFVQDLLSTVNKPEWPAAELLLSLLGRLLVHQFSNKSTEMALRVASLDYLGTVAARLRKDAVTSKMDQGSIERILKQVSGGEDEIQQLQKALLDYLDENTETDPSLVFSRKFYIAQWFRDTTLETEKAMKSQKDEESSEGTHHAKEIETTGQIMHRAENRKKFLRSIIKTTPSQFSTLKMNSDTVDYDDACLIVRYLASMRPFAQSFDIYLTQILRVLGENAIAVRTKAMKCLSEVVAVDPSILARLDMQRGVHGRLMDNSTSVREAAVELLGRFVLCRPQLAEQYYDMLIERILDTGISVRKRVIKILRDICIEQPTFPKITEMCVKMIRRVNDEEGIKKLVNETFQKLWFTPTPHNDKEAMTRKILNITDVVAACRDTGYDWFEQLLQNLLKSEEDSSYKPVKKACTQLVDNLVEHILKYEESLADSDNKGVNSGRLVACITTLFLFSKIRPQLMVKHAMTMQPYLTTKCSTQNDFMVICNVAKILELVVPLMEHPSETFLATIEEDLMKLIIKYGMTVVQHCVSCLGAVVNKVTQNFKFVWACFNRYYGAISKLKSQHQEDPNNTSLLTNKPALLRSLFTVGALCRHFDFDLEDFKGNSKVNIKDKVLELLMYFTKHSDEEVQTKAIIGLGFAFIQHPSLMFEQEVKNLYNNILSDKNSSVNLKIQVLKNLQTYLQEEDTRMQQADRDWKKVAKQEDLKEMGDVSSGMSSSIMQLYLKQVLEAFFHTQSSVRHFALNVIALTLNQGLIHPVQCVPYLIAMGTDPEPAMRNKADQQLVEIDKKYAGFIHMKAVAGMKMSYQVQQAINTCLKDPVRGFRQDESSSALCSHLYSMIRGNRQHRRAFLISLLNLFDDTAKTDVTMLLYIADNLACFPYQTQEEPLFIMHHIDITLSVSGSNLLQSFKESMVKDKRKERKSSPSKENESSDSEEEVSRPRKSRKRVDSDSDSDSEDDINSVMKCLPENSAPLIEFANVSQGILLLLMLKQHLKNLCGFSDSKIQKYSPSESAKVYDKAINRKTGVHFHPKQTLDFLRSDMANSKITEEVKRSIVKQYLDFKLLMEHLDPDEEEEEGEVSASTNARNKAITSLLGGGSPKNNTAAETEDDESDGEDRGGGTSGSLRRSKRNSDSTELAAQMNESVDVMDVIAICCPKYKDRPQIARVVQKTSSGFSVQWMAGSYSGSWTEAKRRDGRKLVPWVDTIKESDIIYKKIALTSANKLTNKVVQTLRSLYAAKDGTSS

Molecular target: SMC1/SMC3/SCC1 cohesin Trimer (UniProt Q14683)
Experiment: mass photometry; in solution; equilibrated mixture of 150 nM cohesin Trimer sample with 150 nM STAG1 and 150 nM NIPBL, without nucleotide or with 2.5 mM ATP or ATPγS; no DNA; both purified

binding: binds
Substance: NIPBL (from UniProt Q6KC79 1-2804)
